For the assay, the target named is SHP-1 phosphatase (UniProt P29350). As to the kind of experiment: immunoprecipitation with anti-SHP-1 antibodies, Western blot with anti-myc antibody (FIG. 4C). (In western blotting, separated proteins are transferred to a membrane and probed.)

Chains of the proteins cited; added tags and fusions are not shown. Residues count along the entry.
UniProt P29350: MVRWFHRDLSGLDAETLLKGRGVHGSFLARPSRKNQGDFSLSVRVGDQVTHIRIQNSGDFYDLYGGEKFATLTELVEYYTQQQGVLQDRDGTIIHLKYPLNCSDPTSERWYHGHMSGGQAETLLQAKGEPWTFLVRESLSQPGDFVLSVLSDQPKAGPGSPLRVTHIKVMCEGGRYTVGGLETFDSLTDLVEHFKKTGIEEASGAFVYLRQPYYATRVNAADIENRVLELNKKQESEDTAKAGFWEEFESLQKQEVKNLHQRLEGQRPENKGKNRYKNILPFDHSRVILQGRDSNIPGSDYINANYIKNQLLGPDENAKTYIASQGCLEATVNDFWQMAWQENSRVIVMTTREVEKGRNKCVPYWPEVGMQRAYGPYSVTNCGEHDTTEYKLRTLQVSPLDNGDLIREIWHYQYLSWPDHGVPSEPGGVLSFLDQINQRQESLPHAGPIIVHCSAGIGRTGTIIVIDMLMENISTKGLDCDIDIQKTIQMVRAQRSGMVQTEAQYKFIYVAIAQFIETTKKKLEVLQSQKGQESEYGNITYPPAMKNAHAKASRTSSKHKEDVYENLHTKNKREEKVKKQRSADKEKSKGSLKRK
UniProt Q8NHJ6, residues 22-448: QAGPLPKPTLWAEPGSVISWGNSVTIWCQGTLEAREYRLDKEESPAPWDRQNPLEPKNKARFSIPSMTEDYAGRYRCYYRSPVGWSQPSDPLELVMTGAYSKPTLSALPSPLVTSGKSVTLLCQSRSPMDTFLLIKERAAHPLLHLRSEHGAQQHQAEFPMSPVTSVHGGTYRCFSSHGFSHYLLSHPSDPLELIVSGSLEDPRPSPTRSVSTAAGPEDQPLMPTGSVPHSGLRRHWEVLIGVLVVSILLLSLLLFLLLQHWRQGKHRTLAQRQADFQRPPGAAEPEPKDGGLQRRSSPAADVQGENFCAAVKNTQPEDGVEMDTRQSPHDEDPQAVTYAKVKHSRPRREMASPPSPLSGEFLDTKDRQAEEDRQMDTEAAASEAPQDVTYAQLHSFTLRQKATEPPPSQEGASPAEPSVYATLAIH

Experimental findings from patent US20090274685A1 are described below.

Results are given in words; binding and its absence hold for the method and conditions named. Some results given as binding are weak or reduced against the parent protein; the word gives no strength.

On to “full-length human ILT3 over-expressed in KG1 cells (KG1.ILT3) (from UniProt Q8NHJ6 22-448) (receptor)”, for which the binding result is listed as “binds”.
